From paper PMC6969024
Results are given in words; binding and its absence hold for the method and conditions named. In cells and extracts the contact can be indirect. Some results given as binding are weak or reduced against the parent protein; the word gives no strength.

By UniProt entry, the sequences of proteins in these tests, tags left out.
UniProt Q8BG87: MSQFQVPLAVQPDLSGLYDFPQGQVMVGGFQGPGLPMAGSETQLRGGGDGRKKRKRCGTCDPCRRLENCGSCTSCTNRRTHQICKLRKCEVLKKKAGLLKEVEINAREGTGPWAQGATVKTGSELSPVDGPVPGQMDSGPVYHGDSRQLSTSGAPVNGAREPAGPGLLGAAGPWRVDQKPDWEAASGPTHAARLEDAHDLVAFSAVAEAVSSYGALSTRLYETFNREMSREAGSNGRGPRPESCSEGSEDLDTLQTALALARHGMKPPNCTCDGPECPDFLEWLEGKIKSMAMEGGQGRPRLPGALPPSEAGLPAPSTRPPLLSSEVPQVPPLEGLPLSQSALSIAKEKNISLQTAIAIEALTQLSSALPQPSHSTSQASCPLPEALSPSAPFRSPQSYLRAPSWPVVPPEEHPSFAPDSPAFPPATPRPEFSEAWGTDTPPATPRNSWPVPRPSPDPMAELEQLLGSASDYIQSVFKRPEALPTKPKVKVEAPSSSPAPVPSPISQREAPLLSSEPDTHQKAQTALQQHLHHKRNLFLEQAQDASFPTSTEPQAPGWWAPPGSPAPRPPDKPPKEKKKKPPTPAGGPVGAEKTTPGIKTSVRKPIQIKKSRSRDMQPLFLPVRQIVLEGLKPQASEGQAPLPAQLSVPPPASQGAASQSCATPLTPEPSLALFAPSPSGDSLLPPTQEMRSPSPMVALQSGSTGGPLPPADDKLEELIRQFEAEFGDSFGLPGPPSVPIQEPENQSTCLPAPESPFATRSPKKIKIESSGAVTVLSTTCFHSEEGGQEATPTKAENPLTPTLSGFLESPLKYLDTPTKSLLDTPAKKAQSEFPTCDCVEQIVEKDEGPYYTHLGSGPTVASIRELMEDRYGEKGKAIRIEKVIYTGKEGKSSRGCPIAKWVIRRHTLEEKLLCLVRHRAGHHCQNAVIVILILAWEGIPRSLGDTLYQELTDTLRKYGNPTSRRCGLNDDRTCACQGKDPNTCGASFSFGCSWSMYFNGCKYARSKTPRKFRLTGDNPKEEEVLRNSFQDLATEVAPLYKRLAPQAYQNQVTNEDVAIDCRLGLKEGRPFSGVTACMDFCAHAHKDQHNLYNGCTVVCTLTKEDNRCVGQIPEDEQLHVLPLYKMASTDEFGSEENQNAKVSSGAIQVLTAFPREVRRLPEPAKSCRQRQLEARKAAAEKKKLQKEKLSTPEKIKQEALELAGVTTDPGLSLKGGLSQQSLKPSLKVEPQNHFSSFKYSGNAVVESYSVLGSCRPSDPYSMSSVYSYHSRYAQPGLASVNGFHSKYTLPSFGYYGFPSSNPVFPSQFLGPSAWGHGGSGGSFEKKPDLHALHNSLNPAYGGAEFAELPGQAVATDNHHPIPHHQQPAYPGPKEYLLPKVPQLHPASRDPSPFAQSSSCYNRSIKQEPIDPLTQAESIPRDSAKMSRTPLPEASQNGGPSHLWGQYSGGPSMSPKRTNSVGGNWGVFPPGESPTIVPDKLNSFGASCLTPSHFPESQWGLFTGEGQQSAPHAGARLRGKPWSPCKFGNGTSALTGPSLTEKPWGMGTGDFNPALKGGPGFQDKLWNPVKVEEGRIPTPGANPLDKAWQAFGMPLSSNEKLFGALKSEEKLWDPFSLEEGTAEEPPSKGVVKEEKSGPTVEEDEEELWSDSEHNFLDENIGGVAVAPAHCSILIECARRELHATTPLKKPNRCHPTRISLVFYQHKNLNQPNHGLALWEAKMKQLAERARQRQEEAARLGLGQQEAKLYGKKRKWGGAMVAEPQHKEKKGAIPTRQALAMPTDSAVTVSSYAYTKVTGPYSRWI

T1: FOXA2 (mouse (endogenous in mouse primary hepatocytes)) (UniProt P35583)
T1 sequence: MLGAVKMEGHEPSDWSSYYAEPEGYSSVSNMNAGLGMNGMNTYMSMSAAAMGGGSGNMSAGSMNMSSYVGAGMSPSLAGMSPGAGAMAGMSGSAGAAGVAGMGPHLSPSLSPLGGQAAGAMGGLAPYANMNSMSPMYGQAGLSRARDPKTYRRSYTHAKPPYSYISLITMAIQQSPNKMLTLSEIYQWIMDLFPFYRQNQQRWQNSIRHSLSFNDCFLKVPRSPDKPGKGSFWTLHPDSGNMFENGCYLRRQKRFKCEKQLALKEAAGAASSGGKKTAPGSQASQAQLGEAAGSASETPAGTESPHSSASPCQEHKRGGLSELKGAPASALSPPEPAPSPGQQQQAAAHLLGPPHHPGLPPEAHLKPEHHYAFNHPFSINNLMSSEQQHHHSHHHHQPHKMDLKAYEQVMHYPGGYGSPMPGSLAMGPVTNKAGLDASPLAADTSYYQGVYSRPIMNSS

B1: FOXA2 (protein, UniProt P35583 1-459)
chain: T1 sequence

Legend:
[1] = target: T1, FOXA2 (mouse (endogenous in mouse primary hepatocytes)); experiment: co-IP; lysate of H19 KO mouse hepatocytes infected with Ad-TET3 for 24 h; IP with rabbit polyclonal anti-TET3 or goat polyclonal anti-FOXA2 (preimmune IgG as control) on Protein A/G beads, 4 °C overnight, lysate at 150 mM NaCl, washes in IP buffer (1% Triton X-100, 300 mM NaCl, 10 mM Tris-HCl pH 7.5, 10 mM EDTA); immunoblot
[2] = target: TET3 (mouse full-length TET3 ORF expressed from the adenovirus Ad-TET3) (mouse) (UniProt Q8BG87); experiment: as above
[3] = target: TET3 (endogenous, WT mouse primary hepatocytes) (mouse (endogenous in mouse primary hepatocytes)) (UniProt Q8BG87); experiment: co-IP; lysate of WT mouse primary hepatocytes treated with glucagon (20 nM) or vehicle for 24 h; IP with anti-TET3 antibody on Protein A/G beads, 4 °C overnight, washes in IP buffer (300 mM NaCl); immunoblot for FOXA2

| Molecule | binding [1] | binding [2] | binding [3] |
| --- | --- | --- | --- |
| TET3 (mouse full-length TET3 ORF expressed from the adenovirus Ad-TET3) (from UniProt Q8BG87 1-1803) | binds |  |  |
| B1 |  | binds | binds |
